Sequences and labels used below:
B1: CD213α2 (protein, UniProt Q14627 27-380, looked up)
Interleukin-13 receptor …: DTEIKVNPPQDFEIVDPGYLGYLYLQWQPPLSLDHFKECTVEYELKYRNIGSETWKTIITKNLHYKDGFDLNKGIEAKIHTLLPWQCTNGSEVQSSWAETTYWISPQGIPETKVQDMDCVYYNWQYLLCSWKPGIGVLLDTNYNLFYWYEGLDHALQCVDYIKADGQNIGCRFPYLEASDYKDFYICVNGSSENKPIRSSYFTFQLQNIVKPLPPVYLTFTRESSCEIKLKWSIPLGPIPARCFDYEIEIREDDTTLVTATVENETYTLKTTNETRQLCFVVRSKVNIYCSDDGIWSEWSDKQCWEGEDLSKKTLLRFWLPFGFILILVIFVTGLLLRKPNTYPKMIPEFFCDT
B2: CD206 (protein, UniProt P22897 19-1456, looked up)
Macrophage mannose receptor 1: LLDTRQFLIYNEDHKRCVDAVSPSAVQTAACNQDAESQKFRWVSESQIMSVAFKLCLGVPSKTDWVAITLYACDSKSEFQKWECKNDTLLGIKGEDLFFNYGNRQEKNIMLYKGSGLWSRWKIYGTTDNLCSRGYEAMYTLLGNANGATCAFPFKFENKWYADCTSAGRSDGWLWCGTTTDYDTDKLFGYCPLKFEGSESLWNKDPLTSVSYQINSKSALTWHQARKSCQQQNAELLSITEIHEQTYLTGLTSSLTSGLWIGLNSLSFNSGWQWSDRSPFRYLNWLPGSPSAEPGKSCVSLNPGKNAKWENLECVQKLGYICKKGNTTLNSFVIPSESDVPTHCPSQWWPYAGHCYKIHRDEKKIQRDALTTCRKEGGDLTSIHTIEELDFIISQLGYEPNDELWIGLNDIKIQMYFEWSDGTPVTFTKWLRGEPSHENNRQEDCVVMKGKDGYWADRGCEWPLGYICKMKSRSQGPEIVEVEKGCRKGWKKHHFYCYMIGHTLSTFAEANQTCNNENAYLTTIEDRYEQAFLTSFVGLRPEKYFWTGLSDIQTKGTFQWTIEEEVRFTHWNSDMPGRKPGCVAMRTGIAGGLWDVLKCDEKAKFVCKHWAEGVTHPPKPTTTPEPKCPEDWGASSRTSLCFKLYAKGKHEKKTWFESRDFCRALGGDLASINNKEEQQTIWRLITASGSYHKLFWLGLTYGSPSEGFTWSDGSPVSYENWAYGEPNNYQNVEYCGELKGDPTMSWNDINCEHLNNWICQIQKGQTPKPEPTPAPQDNPPVTEDGWVIYKDYQYYFSKEKETMDNARAFCKRNFGDLVSIQSESEKKFLWKYVNRNDAQSAYFIGLLISLDKKFAWMDGSKVDYVSWATGEPNFANEDENCVTMYSNSGFWNDINCGYPNAFICQRHNSSINATTVMPTMPSVPSGCKEGWNFYSNKCFKIFGFMEEERKNWQEARKACIGFGGNLVSIQNEKEQAFLTYHMKDSTFSAWTGLNDVNSEHTFLWTDGRGVHYTNWGKGYPGGRRSSLSYEDADCVVIIGGASNEAGKWMDDTCDSKRGYICQTRSDPSLTNPPATIQTDGFVKYGKSSYSLMRQKFQWHEAETYCKLHNSLIASILDPYSNAFAWLQMETSNERVWIALNSNLTDNQYTWTDKWRVRYTNWAADEPKLKSACVYLDLDGYWKTAHCNESFYFLCKRSDEIPATEPPQLPGRCPESDHTAWIPFHGHCYYIESSYTRNWGQASLECLRMGSSLVSIESAAESSFLSYRVEPLKSKTNFWIGLFRNVEGTWLWINNSPVSFVNWNTGDPSGERNDCVALHASSGFWSNIHCSSYKGYICKRPKIIDAKPTHELLTTKADTRKMDPSKPSSNVAGVVIIVILLILTGAGLAAYFFYKKRRVHLPQEGAFENTLYFNSQSSPGTSDMKDLVGNIEQNEHSVI
B3: CD218a (protein, UniProt Q13478 19-541, looked up)
Interleukin-18 receptor 1: AESCTSRPHITVVEGEPFYLKHCSCSLAHEIETTTKSWYKSSGSQEHVELNPRSSSRIALHDCVLEFWPVELNDTGSYFFQMKNYTQKWKLNVIRRNKHSCFTERQVTSKIVEVKKFFQITCENSYYQTLVNSTSLYKNCKKLLLENNKNPTIKKNAEFEDQGYYSCVHFLHHNGKLFNITKTFNITIVEDRSNIVPVLLGPKLNHVAVELGKNVRLNCSALLNEEDVIYWMFGEENGSDPNIHEEKEMRIMTPEGKWHASKVLRIENIGESNLNVLYNCTVASTGGTDTKSFILVRKADMADIPGHVFTRGMIIAVLILVAVVCLVTVCVIYRVDLVLFYRHLTRRDETLTDGKTYDAFVSYLKECRPENGEEHTFAVEILPRVLEKHFGYKLCIFERDVVPGGAVVDEIHSLIEKSRRLIIVLSKSYMSNEVRYELESGLHEALVERKIKIILIEFTPVTDFTFLPQSLKLLKSHRVLKWKADKSLSYNSRFWKNLLYLMPAKTVKPGRDEPEVLPVLSES
B4: CD244 (2B4) (protein, UniProt Q9BZW8 22-370, looked up)
Natural killer cell receptor …: CQGSADHVVSISGVPLQLQPNSIQTKVDSIAWKKLLPSQNGFHHILKWENGSLPSNTSNDRFSFIVKNLSLLIKAAQQQDSGLYCLEVTSISGKVQTATFQVFVFESLLPDKVEKPRLQGQGKILDRGRCQVALSCLVSRDGNVSYAWYRGSKLIQTAGNLTYLDEEVDINGTHTYTCNVSNPVSWESHTLNLTQDCQNAHQEFRFWPFLVIIVILSALFLGTLACFCVWRRKRKEKQSETSPKEFLTIYEDVKDLKTRRNHEQEQTFPGGGSTIYSMIQSQSSAPTSQEPAYTLYSLIQPSRKSGSRKRNHSPSFNSTIYEVIGKSQPKAQNPARLSRKELENFDVYS
B5: CD70 (protein, UniProt P32970 1-193, looked up)
CD70 antigen: MPEEGSGCSVRRRPYGCVLRAALVPLVAGLVICLVVCIQRFAQAQQQLPLESLGWDVAELQLNHTGPQQDPRLYWQGGPALGRSFLHGPELDKGQLRIHRDGIYMVHIQVTLAICSSTTASRHHPTTLAVGICSPASRSISLLRLSFHQGCTIASQRLTPLARGDTLCTNLTGTLLPSRNTDETFFGVQWVRP
B6: CD229 (protein, UniProt Q9HBG7 48-655, looked up)
T-lymphocyte surface antigen …: KDSAPTVVSGILGGSVTLPLNISVDTEIENVIWIGPKNALAFARPKENVTIMVKSYLGRLDITKWSYSLCISNLTLNDAGSYKAQINQRNFEVTTEEEFTLFVYEQLQEPQVTMKSVKVSENFSCNITLMCSVKGAEKSVLYSWTPREPHASESNGGSILTVSRTPCDPDLPYICTAQNPVSQRSSLPVHVGQFCTDPGASRGGTTGETVVGVLGEPVTLPLALPACRDTEKVVWLFNTSIISKEREEAATADPLIKSRDPYKNRVWVSSQDCSLKISQLKIEDAGPYHAYVCSEASSVTSMTHVTLLIYRRLRKPKITWSLRHSEDGICRISLTCSVEDGGNTVMYTWTPLQKEAVVSQGESHLNVSWRSSENHPNLTCTASNPVSRSSHQFLSENICSGPERNTKLWIGLFLMVCLLCVGIFSWCIWKRKGRCSVPAFCSSQAEAPADTPEPTAGHTLYSVLSQGYEKLDTPLRPARQQPTPTSDSSSDSNLTTEEDEDRPEVHKPISGRYEVFDQVTQEGAGHDPAPEGQADYDPVTPYVTEVESVVGENTMYAQVFNLQGKTPVSQKEESSATIYCSIRKPQVVPPPQQNDLEIPESPTYENFT

The first data set deals with undifferentiated hPSC (D0). Description: High-throughput cell-surface marker screening (LEGENDScreen), %PE+. The following applies: percentage of cells bound to the PE-conjugated antibody (LEGENDScreen). Format: cell-based, human.
For B1, the “% PE+ in H1 UD” value was 0.24%.

For the molecule B2, the “% PE+ in H1 UD” value is on record as 0.25%.

Turning to B3, the “% PE+ in H1 UD” value is 0.12%.

B4: the “% PE+ in H1 UD” value was found to be 0.53%.

On to B5, for which the “% PE+ in H1 UD” value amounted to 0.25%.

With B6, the “% PE+ in H1 UD” value was determined as 0.19%.

The subject of the next data set is D3.5 SOX17-GFP- non-PGCs. Described as above. It counts as cell-based, human. The following applies: percentage of cells bound to the PE-conjugated antibody (LEGENDScreen).
Turning to B1, the “% PE+ in non-PGCs” value stood at 0.00233%.

For the molecule B2, the “% PE+ in non-PGCs” value came to 0.000365%.

Regarding B3, the “% PE+ in non-PGCs” value was 0.001522%.

Consider B4, for which the “% PE+ in non-PGCs” value came to 0.0001516%.

For B5, the “% PE+ in non-PGCs” value came to 0.0005063%.

On to B6, for which the “% PE+ in non-PGCs” value amounted to 9.259E-05%.

Another data set relates to D3.5 SOX17-GFP+ PGCs. Described as above. Format: cell-based, human. The following applies: percentage of cells bound to the PE-conjugated antibody (LEGENDScreen).
As for B1, the “% PE+ in PGCs” value amounted to 0%.

As for B2, the “% PE+ in PGCs” value turned out to be 0%.

Turning to B3, the “% PE+ in PGCs” value came out at 0%.

In the case of B4, the “% PE+ in PGCs” value is reported as 0%.

With B5, the “% PE+ in PGCs” value was 0%.

Consider B6, for which the “% PE+ in PGCs” value was found to be 0.000948%.

The values are drawn from patent US20230242871A1, “GENERATION OF PRIMORDIAL GERM CELLS AND METHODS OF USING THE SAME” (The Board of Trustees of the Leland Stanfor Junior …, priority 2020, published 2023).
